A short description of the data set: Dosimetry (MIRD formalism) in CA20948 xenograft mice. It counts as in vivo, mouse.

`C[C@@H](O)[C@H](NC(=O)[C@@H]1CSSC[C@H](NC(=O)[C@@H](Cc2ccccc2)NC(=O)CN2CCN(CC(=O)O)CCN(CC(=O)O)CCN(CC(=O)O)CC2)C(=O)N[C@@H](Cc2ccc(O)cc2)C(=O)N[C@H](Cc2c[nH]c3ccccc23)C(=O)N[C@@H](CCCCN)C(=O)N[C@@H]([C@@H](C)O)C(=O)N1)C(=O)O` [[^153Sm]Sm-DOTA-TATE, metal not drawn]: the “absorbed dose, kidneys” value (kidney m = 0.26 g, MIRD, S values by MCNP6.2) came out at 3.35 mGy/MBq·s. Where the note is “mouse injected with 2 MBq”, the “dose to the kidneys” value is on record as 6.7 mGy/s and the “dose to the tumor” value came out at 6 mGy/s. Besides, the “absorbed dose, tumor” value (spherical tumor, m = 0.42 g, MIRD, S values by MCNP6.2) stood at 30.7 mGy/MBq·s.

Values taken from PMC9785812 (Pharmaceutics, 2022).
